# Laboratory results: PubChem BioAssay AID493014 (National Center for Advancing Translational Sciences (NCATS), 2011)
# The list shows a part of the results. The main result of the screen is listed elsewhere. These columns were measured beside it and carry no call. Compounds called inactive in the main read-out are mostly missing here. Words in brackets tell the shape of the fitted curve; partial curves, single points and poor fits give uncertain potencies.
# Test: qHTS Assay to Find Inhibitors of Chronic Active B-Cell Receptor Signaling
# Details: ABC-DLBCL IkBa-CBG/CBR reporter, luminescence ratio (green luciferase fused to IkBa over red control in TMD8 lymphoma cells), 4 h
# In short: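 Concentration-response series (up to 46 uM) were applied to TMD8 dual-reporter cells for 4 h at 37C with doxycycline. Green/red ratio, after filter-overlap correction, defined %Activity; red signal alone was normalised to basal cells and zero luminescence.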
# [1] = measured here: CBR red luminescence, cell number
# [2] = measured here: IkBa-CBG green luminescence
SMILES,AC50 [1],AC50 [2]
COc1ccc(/C=C2\SC(=O)N(CCCC(=O)Nc3cc(Cl)ccc3C(=O)O)C2=O)cc1,"0.206 µM [falling, full curve]",–
CCOc1ccc2nc(N/C(N)=N/C(=S)Nc3cccc(C)c3)nc(C)c2c1,"0.794 µM [rising, full curve]",–
Oc1ccccc1-c1nc(NCc2ccco2)c2ccccc2n1,"29.1 µM [falling, single point]",–
Cc1ccc(-c2cc(C(=O)Nc3cc(C)ccc3C)[nH]n2)c(O)c1,"0.0366 µM [falling, full curve]",–
COc1ccc([C@@]2(O)c3c(ccc(CC=C(C)C)c3O)NC(=O)[C@@H]2OC)cc1,"35.5 µM [falling, single point]",–
COc1cc(/C=C/C(=O)NC(C)(C)C)ccc1OCc1ccccc1,"9.2 µM [rising, partial curve]",–
O=C(CC1CC2CCC1C2)N1CCN(S(=O)(=O)c2ccccc2[N+](=O)[O-])CC1 (stereo not drawn),"0.366 µM [rising, partial curve, poor fit]",–
Nc1c(-c2cccs2)cnn1-c1nc(-c2ccc(Cl)cc2Cl)cs1,"0.631 µM [falling, full curve, poor fit]",–
CCc1ccc(C2=CC(c3cccc(OC)c3OC)n3c(nc4ccccc43)N2)cc1 (stereo not drawn),"10 µM [falling, partial curve, poor fit]",–
CC1(C)CC(=O)c2sc(NS(=O)(=O)Cc3ccccc3)nc2C1,"2.31 µM [rising, full curve, poor fit]",–
C(=N\NCc1ccccc1)/c1ccc2nccnc2c1,"22.4 µM [falling, single point]",–
Fc1ccccc1/C=N/Nc1ncnc2ccccc12,"11.2 µM [falling, partial curve]",–
Cc1csc(NC(=O)c2nc(-c3ccccc3)n(-c3ccccc3)n2)n1,"0.316 µM [rising, full curve, poor fit]",–
O=C(NC(=S)NCCc1ccccc1)c1ccccc1F,"12.6 µM [falling, partial curve]",–
O=C(O)c1ccccc1SCC(=O)N1CCOCC1,"0.398 µM [rising, full curve, poor fit]",–
COc1ccc(NC(=O)NCc2cccn2C)c(OC)c1,"11.2 µM [falling, partial curve]",–
COc1ccc(CNC(=O)C2C3C=CC4(CN(Cc5cccnc5)C(=O)C24)O3)cc1 (stereo not drawn),"4.11 µM [rising, single point]",–
O=C(Nc1ccc(F)c(Cl)c1)C1CCN(S(=O)(=O)c2cccnc2)CC1,"25.9 µM [falling, single point]",–
COc1ccc2c(c1)Cc1sc(NC(=O)c3ccccc3)nc1-2,"2.91 µM [falling, full curve]",–
Cc1ccc(-c2csc(NC(=O)CSC3=NCCS3)n2)cc1,"23.1 µM [falling, single point]",–
CCCNCc1nnc(-c2ccccc2Cl)o1,"6.51 µM [falling, partial curve]",–
COc1ccc(CNS(=O)(=O)c2ccc(-n3cnnn3)c(C)c2)cc1,"35.5 µM [falling, single point]",–
CC1CCCC/C1=N\NC(=S)NCCc1ccccc1 (stereo not drawn),"35.5 µM [rising, single point]","12.6 µM [falling, partial curve, poor fit]"

# Structures above that contain a COOH group:
SMILES,AC50 [1],AC50 [2]
COc1ccc(/C=C2\SC(=O)N(CCCC(=O)Nc3cc(Cl)ccc3C(=O)O)C2=O)cc1,"0.206 µM [falling, full curve]",–
O=C(O)c1ccccc1SCC(=O)N1CCOCC1,"0.398 µM [rising, full curve, poor fit]",–

# (list continues)

SMILES,AC50 [1],AC50 [2]
CC(C)(CCl)C(=O)Nc1ccc(Sc2ccc(F)cc2)cc1,"35.5 µM [falling, single point]",–
O/N=C/c1ccccc1Oc1ccc(Cl)cc1,"20 µM [rising, single point]",–
CCOC(=O)c1cc2sccc2n1Cc1ccccc1,"7.31 µM [rising, partial curve, poor fit]",–
COC(=O)c1cccc(CN2C(=O)SC(Nc3ccccc3)C2=O)c1 (stereo not drawn),"3.55 µM [rising, single point]",–
O=C(NNS(=O)(=O)c1ccc(Cl)cc1)c1cc(-c2ccccc2)n[nH]1,"12.6 µM [falling, partial curve, poor fit]",–
COc1cccc(CN2CCCC(C(=O)N3CCCCC3)C2)c1 (stereo not drawn),"35.5 µM [rising, single point]",–
Cc1nc2nc(COc3ccccc3)[nH]n2c(=O)c1Cl,"0.291 µM [falling, full curve]",–
CCc1ccc(S(=O)(=O)/N=C2\C=C(Nc3ccc(O)cc3)C(=O)c3ccccc32)cc1,"5.01 µM [falling, full curve]",–
Cc1ccc(C(=O)N/N=C\c2ccc([N+](=O)[O-])o2)cn1,"35.5 µM [falling, single point]",–
CCOC(=O)c1cnn2c(N)c(C#N)nnc12,"22.4 µM [falling, single point]",–
COc1cc(/C=N/NC(=O)c2cc3c(ccc4ccccc43)o2)cc(OC)c1O,"7.08 µM [falling, partial curve]",–
Nc1ccccc1C(=O)N/N=C1\C2CN3CCN(C2)CC1(c1ccccc1)C3,"10.3 µM [falling, partial curve]",–
COc1ccc(Nc2cc(C(=O)NCCCN(C)Cc3ccccc3)c3ccccc3n2)cc1OC,"7.94 µM [falling, partial curve, poor fit]",–
O=C(Nc1ccc(F)cc1)c1oc2ccccc2c1NC(=O)C1CC1,"0.398 µM [falling, full curve]",–
N#CC1=C(N)Nc2ncnn2C1c1ccc(F)cc1 (stereo not drawn),"18.4 µM [falling, single point]",–
COc1ccccc1NC(=O)C(=O)NCCC1CCCCN1S(=O)(=O)c1ccccc1 (stereo not drawn),"2.59 µM [falling, partial curve, poor fit]",–
CCOC(=O)c1c(NC(=O)CN2CCN(C(=O)c3ccco3)CC2)sc2c1CCCC2,"14.6 µM [falling, partial curve]",–
CC1CC(C)CN(C(=O)c2ccc3c(c2NCCO)C(=O)c2ccccc2C3=O)C1 (stereo not drawn),–,"5.17 µM [rising, partial curve, poor fit]"
Cc1nn(Cc2ccccc2)c2sc(C(=O)NCc3cccnc3)cc12,"5.01 µM [rising, full curve, poor fit]",–
N#C/C(=C/c1cccc(O)c1)C(=O)NCc1ccc(Cl)cc1,"31.6 µM [falling, single point]",–
Cc1cccc(NC(=O)CSc2nnc(-c3ccccc3C)o2)c1,"10.3 µM [rising, partial curve, poor fit]",–
Fc1ccccc1Nc1nc2ccccc2o1,"11.2 µM [falling, partial curve, poor fit]",–
CCCOc1ccc(-c2c(C(=O)N/N=C/c3ccncc3)nnn2-c2nonc2N)cc1,"12.6 µM [rising, partial curve, poor fit]",–

SMILES,AC50 [1],AC50 [2]
Cc1cc(C)c2c(=O)n(CC(=O)Nc3ccc(Cl)cc3)sc2n1,"25.1 µM [falling, single point]",–
COc1cccc(/C(C)=N/Nc2ccc(S(=O)(=O)N3CCCCC3)cn2)c1,"0.231 µM [rising, full curve, poor fit]",–
COc1cc(CCC(=O)NCc2ccc(Cl)cc2)cc(OC)c1OC,"5.62 µM [rising, single point]",–
CCOC(=O)c1ccc(NC(=S)Nc2cccc(C)n2)cc1,"1.3 µM [rising, full curve, poor fit]",–
COc1cccc(/C=N/n2cnc3cc(C)c(C)cc32)c1OC,"25.1 µM [rising, single point]",–
C=C[C@]1(C)C=C2CCC3[C@](C)(CCC[C@@]3(C)C(=O)O)C2CC1 (stereo partly drawn),"5.8 µM [rising, partial curve, poor fit]",–
O=C(COC(=O)c1cc(Cl)ccc1O)Nc1ccc2c(c1)OCCO2,"9.2 µM [falling, partial curve]",–
Cc1nc(-c2ccc(NC(=O)c3ccco3)cc2)cs1,"1.58 µM [falling, full curve]",–
C/C(=N\NC(=O)c1ccc(NS(=O)(=O)c2cccs2)cc1)c1ccc(O)cc1O,"7.08 µM [falling, partial curve]",–
Cc1ccc(NC(=O)CCN2CCN(C/C=C/c3ccccc3)CC2)cc1,"8.2 µM [rising, partial curve, poor fit]",–
Cc1cc(N2CCCC2)nc(SCC(=O)c2ccccc2)n1,"0.326 µM [rising, full curve, poor fit]",–
c1ccc(COc2ccc3nocc3c2)cc1,"2.31 µM [rising, full curve, poor fit]",–
CC(C)c1ccc(/C=C/C(=O)CCC(=O)O)cc1,"28.2 µM [falling, single point]",–
COc1ccc(OCCOC(=O)c2[nH]c(C)c(C(C)=O)c2C)cc1,–,"10 µM [falling, partial curve]"
Cc1cc(C)c(C#N)c(Nc2ccccc2)n1,"6.51 µM [falling, single point]",–
O=C(CSc1nnc(-c2ccco2)o1)N1CCOCC1,"29.1 µM [rising, single point]",–
Cn1cc(S(=O)(=O)CC(=O)Nc2ccc3c(c2)OCCO3)c2ccccc21,"11.6 µM [falling, partial curve, poor fit]",–
Clc1ccc(-c2noc(/C=C/c3ccccc3)n2)cc1,"35.5 µM [rising, single point]",–
O=C(COC(=O)/C=C/c1cccc(Cl)c1)NCc1cccs1,"16.4 µM [rising, partial curve, poor fit]",–
COc1ccc2cc(CCNC(=O)c3cccc([N+](=O)[O-])c3)c(=O)[nH]c2c1,"17.8 µM [falling, single point]",–
Cc1nc(C(=O)Nc2ccccc2)sc1C(=O)Nc1ccccc1,"8.91 µM [falling, partial curve]",–
